Results: PMC12681812
Results are given in words; binding and its absence hold for the method and conditions named. In cells and extracts the contact can be indirect. Some results given as binding are weak or reduced against the parent protein; the word gives no strength. For part of these data: Where a sequence is shown, tags or fusion partners need not be part of it.

Chains of the proteins cited; added tags and fusions are not shown.
UniProt Q9R1E0: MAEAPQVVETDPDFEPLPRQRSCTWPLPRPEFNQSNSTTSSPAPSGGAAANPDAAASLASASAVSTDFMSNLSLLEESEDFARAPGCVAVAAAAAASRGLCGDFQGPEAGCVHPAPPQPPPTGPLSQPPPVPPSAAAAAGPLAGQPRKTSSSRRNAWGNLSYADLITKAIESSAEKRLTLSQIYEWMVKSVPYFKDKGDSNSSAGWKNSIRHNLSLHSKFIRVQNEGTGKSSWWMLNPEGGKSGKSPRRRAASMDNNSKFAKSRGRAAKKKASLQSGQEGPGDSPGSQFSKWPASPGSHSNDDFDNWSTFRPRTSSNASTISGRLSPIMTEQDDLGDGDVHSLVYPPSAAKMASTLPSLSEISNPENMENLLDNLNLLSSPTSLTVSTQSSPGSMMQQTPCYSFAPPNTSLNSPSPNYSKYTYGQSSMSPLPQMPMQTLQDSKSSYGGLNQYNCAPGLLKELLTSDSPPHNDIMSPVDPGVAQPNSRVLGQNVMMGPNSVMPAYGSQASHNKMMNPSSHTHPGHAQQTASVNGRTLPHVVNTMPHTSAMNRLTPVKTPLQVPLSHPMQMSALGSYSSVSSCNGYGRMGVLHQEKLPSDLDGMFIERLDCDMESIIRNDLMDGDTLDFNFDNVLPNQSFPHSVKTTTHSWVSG

T1: mouse Sin3a (NM_001110350.2) in pEGFP-N1 (mouse) (UniProt Q60520)
T1 sequence: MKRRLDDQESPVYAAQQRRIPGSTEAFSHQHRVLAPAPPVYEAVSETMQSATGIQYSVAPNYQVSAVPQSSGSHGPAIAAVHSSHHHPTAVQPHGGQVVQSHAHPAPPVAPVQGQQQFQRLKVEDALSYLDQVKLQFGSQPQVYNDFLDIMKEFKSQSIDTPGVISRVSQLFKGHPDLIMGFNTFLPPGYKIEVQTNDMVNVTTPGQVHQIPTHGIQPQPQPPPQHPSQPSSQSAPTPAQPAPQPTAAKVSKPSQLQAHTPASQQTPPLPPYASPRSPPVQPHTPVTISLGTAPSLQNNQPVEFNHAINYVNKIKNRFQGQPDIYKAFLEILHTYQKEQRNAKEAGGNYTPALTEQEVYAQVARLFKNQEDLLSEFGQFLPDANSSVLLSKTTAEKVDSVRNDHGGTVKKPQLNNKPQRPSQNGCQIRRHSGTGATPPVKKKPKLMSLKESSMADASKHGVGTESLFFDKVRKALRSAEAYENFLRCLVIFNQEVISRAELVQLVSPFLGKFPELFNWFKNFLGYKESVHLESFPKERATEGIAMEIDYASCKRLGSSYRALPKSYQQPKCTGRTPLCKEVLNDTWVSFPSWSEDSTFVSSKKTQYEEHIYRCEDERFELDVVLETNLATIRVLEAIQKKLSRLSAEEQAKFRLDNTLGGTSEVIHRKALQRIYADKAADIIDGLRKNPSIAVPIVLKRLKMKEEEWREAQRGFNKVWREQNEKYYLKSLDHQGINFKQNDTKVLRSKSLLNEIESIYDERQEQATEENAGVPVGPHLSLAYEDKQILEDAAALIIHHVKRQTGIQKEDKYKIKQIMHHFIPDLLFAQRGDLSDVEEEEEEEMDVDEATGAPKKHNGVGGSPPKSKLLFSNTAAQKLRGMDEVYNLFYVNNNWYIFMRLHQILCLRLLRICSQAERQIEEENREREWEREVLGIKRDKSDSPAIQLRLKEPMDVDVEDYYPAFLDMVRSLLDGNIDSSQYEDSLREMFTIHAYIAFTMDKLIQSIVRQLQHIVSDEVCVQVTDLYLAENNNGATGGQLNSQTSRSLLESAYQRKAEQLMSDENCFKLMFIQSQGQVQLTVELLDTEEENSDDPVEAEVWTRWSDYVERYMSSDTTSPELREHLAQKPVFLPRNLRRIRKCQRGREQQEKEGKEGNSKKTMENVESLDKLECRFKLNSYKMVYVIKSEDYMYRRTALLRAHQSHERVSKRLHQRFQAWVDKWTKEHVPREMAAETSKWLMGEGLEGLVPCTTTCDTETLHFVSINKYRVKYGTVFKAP

B1: SIN3 transcription regulator family member A (Sin3a) (protein, UniProt Q60520-1 1-1277)
chain: T1 sequence

Key:
[1] = target: T1, mouse Sin3a (NM_001110350.2) in pEGFP-N1 (mouse); assay: co-IP; RAW264.7 cells transfected with Sin3a or mutant plasmids (pEGFP-N1), under LPS treatment; precipitated by anti-GFP antibody, western blot
[2] = target: Forkhead Box O1 (FoxO1) (mouse (endogenous in RAW264.7 and in primary mouse macrophages)) (UniProt Q9R1E0); assay: co-IP; lysate of RAW264.7 cells under 24 h LPS treatment; anti-FoxO1 antibody or IgG, Protein A/G agarose beads, western blot
[3] = target: Forkhead Box O1 (FoxO1) (mouse (endogenous in RAW264.7 and in primary mouse macrophages)) (UniProt Q9R1E0); assay: co-IP; Tim4+ primary macrophages from FoxO1 FL/FL and FoxO1 M-KO septic mice; western blot of the immunoprecipitate

binding [1]	binding [2]	binding [3]	Molecule
binds			Forkhead Box O1 (FoxO1) (from UniProt Q9R1E0 1-652)
	binds	binds	B1
